Experimental data published in article PMC11780777.
Results are given in words; binding and its absence hold for the method and conditions named. Binding seen in cells or lysates may run through a third protein. Some entries that bind do so weakly or less than the wild type. For some of these results: Tags and fused reporters may be left off the sequences shown.

By UniProt entry, the sequences of proteins in these tests, tags left out.
UniProt P41229: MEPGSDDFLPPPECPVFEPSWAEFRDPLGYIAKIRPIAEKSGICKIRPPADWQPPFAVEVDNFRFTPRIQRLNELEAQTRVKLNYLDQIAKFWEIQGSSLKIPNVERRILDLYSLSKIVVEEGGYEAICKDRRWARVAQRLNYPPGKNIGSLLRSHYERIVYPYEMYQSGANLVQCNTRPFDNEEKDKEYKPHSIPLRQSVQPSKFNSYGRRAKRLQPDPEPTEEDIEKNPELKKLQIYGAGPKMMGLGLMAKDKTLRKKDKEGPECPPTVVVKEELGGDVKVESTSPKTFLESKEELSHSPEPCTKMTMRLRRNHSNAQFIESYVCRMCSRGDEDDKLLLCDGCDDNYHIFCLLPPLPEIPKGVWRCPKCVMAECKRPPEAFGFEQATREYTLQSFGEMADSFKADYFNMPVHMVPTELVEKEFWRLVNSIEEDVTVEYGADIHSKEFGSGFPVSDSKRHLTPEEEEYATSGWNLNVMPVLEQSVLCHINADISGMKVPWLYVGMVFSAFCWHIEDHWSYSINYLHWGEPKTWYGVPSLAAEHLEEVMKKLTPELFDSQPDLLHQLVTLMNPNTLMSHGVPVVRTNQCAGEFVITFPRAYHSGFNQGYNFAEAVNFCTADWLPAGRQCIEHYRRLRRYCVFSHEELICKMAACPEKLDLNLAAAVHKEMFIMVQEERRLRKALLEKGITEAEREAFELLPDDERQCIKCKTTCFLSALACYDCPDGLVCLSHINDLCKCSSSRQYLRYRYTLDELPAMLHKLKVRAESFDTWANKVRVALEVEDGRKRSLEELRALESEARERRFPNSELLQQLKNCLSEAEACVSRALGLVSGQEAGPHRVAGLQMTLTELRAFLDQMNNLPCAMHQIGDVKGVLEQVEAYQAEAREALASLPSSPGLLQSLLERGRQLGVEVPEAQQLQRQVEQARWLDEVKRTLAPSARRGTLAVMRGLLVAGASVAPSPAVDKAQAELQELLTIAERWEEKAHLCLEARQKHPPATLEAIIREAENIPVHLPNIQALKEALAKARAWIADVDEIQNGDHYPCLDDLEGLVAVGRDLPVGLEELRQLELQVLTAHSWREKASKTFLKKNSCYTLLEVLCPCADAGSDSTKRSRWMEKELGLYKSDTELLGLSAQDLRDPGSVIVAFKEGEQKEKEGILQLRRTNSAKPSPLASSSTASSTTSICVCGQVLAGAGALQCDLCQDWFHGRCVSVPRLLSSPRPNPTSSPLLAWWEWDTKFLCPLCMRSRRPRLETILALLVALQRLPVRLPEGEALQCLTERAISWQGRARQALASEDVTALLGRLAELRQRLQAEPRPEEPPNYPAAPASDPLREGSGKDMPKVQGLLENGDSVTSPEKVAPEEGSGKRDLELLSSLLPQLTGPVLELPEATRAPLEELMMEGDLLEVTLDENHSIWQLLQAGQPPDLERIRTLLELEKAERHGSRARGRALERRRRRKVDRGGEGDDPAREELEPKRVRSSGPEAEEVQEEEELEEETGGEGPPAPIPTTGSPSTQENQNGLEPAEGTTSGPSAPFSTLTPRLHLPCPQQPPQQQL
UniProt Q96SW2: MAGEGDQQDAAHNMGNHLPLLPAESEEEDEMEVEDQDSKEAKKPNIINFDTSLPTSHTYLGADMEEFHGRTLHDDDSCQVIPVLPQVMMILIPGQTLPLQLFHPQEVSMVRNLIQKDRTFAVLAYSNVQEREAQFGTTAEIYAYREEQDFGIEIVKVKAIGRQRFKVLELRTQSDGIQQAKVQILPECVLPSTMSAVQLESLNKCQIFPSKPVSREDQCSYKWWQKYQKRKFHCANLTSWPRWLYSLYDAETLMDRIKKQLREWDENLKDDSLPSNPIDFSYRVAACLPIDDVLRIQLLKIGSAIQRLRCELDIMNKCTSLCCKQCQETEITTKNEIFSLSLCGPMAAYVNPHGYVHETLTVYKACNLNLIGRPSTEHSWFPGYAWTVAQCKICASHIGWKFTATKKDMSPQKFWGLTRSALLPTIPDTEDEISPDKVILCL

How the values were obtained:
[1] = molecular target: endogenous KDM5C (AML cell lines NB4 and THP-1) (human (endogenous in NB4 and THP-1)) (UniProt P41229); assay: co-IP; endogenous proteins; 1 ug IgG or KDM5C antibody and protein A/G agarose beads on lysates of NB4 or THP-1 cells, western blotting
FLAG-NAC1 = molecular target: T1, FLAG-NAC1 (UniProt Q96RE7); assay: co-IP; FLAG affinity gel on RIPA lysates (500 ug protein) of transfected HEK293T cells, overnight at 4 °C, washed three times, western blotting
T1 sequence: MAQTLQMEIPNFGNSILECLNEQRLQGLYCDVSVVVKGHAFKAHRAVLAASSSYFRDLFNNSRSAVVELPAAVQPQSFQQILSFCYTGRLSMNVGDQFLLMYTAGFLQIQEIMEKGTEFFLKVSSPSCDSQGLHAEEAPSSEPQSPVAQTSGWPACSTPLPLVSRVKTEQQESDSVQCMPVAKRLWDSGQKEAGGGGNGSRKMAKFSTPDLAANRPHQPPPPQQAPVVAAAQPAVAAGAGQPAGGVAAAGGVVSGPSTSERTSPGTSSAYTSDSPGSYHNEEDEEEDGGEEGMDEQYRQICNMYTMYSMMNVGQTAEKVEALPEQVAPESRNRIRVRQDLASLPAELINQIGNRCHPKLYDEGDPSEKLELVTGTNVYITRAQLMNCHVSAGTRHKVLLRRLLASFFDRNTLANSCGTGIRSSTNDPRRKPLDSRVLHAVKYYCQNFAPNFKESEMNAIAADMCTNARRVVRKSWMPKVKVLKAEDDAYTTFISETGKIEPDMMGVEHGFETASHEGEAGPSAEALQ

FLAG-PICALM = molecular target: T2, FLAG-PICALM (UniProt Q13492); assay: as above
T2 sequence: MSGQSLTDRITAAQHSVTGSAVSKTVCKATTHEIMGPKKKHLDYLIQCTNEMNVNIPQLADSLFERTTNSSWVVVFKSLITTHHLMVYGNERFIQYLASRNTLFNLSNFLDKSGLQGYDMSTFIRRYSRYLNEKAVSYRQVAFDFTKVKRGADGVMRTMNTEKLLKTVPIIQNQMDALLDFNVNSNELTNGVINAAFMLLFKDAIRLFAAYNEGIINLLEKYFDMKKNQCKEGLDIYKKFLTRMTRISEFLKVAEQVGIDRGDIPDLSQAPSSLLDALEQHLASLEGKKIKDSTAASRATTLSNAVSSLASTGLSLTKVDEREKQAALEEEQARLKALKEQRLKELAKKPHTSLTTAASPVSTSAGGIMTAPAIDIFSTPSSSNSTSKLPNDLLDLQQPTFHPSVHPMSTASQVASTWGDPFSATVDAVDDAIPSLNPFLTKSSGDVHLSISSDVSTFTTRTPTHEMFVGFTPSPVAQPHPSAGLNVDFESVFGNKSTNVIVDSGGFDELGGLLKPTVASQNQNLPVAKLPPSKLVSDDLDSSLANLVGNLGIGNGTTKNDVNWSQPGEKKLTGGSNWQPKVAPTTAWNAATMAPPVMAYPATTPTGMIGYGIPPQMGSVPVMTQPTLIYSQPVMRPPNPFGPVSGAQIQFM

FLAG-KDM5C = FLAG-KDM5C (UniProt P41229); assay: as above

binding [1] | binding (FLAG-NAC1) | binding (FLAG-PICALM) | binding (FLAG-KDM5C) | Substance
binds |  |  |  | endogenous CRBN (AML cell lines NB4 and THP-1) (from UniProt Q96SW2 1-442)
 | binds | binds | binds | HA-CRBN (from UniProt Q96SW2 1-442)
